# Data from PubChem BioAssay AID1347423 (Functional Genomics Laboratory (NCATS/FGL), 2020).
# Screen size: about 52,000 sequences; about 210 (0.4%) were called active.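 Rule for the calls: active = gene whose silencing raises cell survival under the drug, median off-target-corrected z-score across its silencing RNAs 2 or more; inactive = the rest.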 The list shows a part of the results.
# Assay: Resistance to Poly (ADP-Ribose) Polymerase inhibitor: Gene Identification via Genome-wide siRNA Screen
# Details: mouse BRCA2 R2336H ES cells, olaparib, CellTiter-Glo viability; active compounds read high
# Procedure, shortened: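 Mouse BRCA2 R2336H ES cells were reverse-transfected with siRNA (20 nM final), treated at 48 h with 500 nM olaparib, and read by CellTiter-Glo after 72 h. Scores: MAD-based z per siRNA, median per gene, seed off-target correction.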
row,Sequence,z-score
1,GGAGGUAUUGGUUUCAUCCTT against Impdh2,inactive: -1.46
2,GCUGCACACUGGAAUCACATT against 2900060P06Rik,inactive: -1.99
3,GGAAGCGAUAAUUUUAAGCTT against Tebp,inactive: 1.23
4,GCCCAGUGUAUAUGCUACUTT against Pirb,inactive: 0.552
5,GAAGCUCAACAACCAGUAUTT against Cited2,inactive: -2.48
6,GGACAUAGAGAAAACAUCUTT against 4933430I17Rik,inactive: 2.07
7,GGAAAUGAAGACAUACCUGTT against Olfr174,inactive: 1.33
8,GCCACUGUUUGAUCUGAAATT against Fhod1,inactive: 0.579
9,GUGAUGUCACUAAUGCCAATT against 2410026K10Rik,inactive: 0.515
10,GGUCAACCCAUUGUAUAAGTT against Socs5,inactive: -0.185
11,CCUUGAUGCUCGUAGGAAGTT against C920006C10Rik,inactive: -0.101
12,GGAGGGUCUCUAAUCUAUGTT against Slc38a4,inactive: -0.871
13,CCAAAAGGCGUAUUUUGGCTT against Anp32a,inactive: 0.11
14,GGUGAAGAAUGCUACACAATT against Htr5a,inactive: 2.78
15,GGUGGAUGAAAUCUACACATT against Gtpbp2,inactive: -0.323
16,GCUAAACUCGCUCAAUCUGTT against Cd14,inactive: 1.6
17,GGCCAAGAAAAUCCUGUGGTT against AW556797,inactive: -2.13
18,GGUCUUCUGUCCAUUAGUGTT against Pigc,inactive: 0.344
19,GGAGAAAGCAGAAAUUGAATT against Mfap1,inactive: -2.5
20,GGAAGAUAGUGUUUUCCACTT against Olfr802,inactive: 0.573
21,GGUAACUUGAGAAACAUCCTT against 2700060E02Rik,inactive: 1.18
22,GGUGAGGAAGUCCUGUGUCTT against Lynx1,inactive: 0.272
23,CGUCGUUAACAACACUUUGTT against Gns,inactive: 0.825

row,Sequence,z-score
1,GCUUUGUCCGCACAUUAUCTT against Hist2h3c2,inactive: 0.315
2,GGCUGAUCAUCCAGUCCAATT against Jund1,inactive: -1.19
3,GGAGAUGCAAAGCUACUCUTT against Epha8,inactive: -1.26
4,CGUACAAUAAUUUGUCUACTT against Slc9a6,inactive: 0.634
5,GGAGAUCAUCUUUUCUCAUTT against Rga,inactive: 1.86
6,CCAUCCAAUAAGGUAAACATT against BC034753,inactive: 2.81
7,GGACACAUGGUGUUGACCATT against Zc3hdc1,inactive: 0.305
8,GGAUUGCUUUUGAGCAACATT against 5830436D01Rik,inactive: 1.92
9,GGCCAUUCUGUCAAAUUCATT against Smpd1,inactive: -0.00742
10,GGCAUAAGAAAAUGGACCCTT against Fhit,inactive: 0.339
11,GGGUCAUUCUGCUAUUCCUTT against Taar7d,inactive: -0.923
12,AUAAAUAGGUAACAGAACCTT against Olfr121,inactive: -1.52
13,GGGUUUCUUCGUGUCUAUUTT against Pthr2,inactive: -1.01
14,GGCUUUUUCUACAUGCGCCTT against Olfr1104,inactive: -0.409
15,GGAAGACGAGUUCAUUGUGTT against Rassf2,inactive: -0.572
16,GCUGCCGACCAUACUUUCCTT against Psme4,inactive: 0.0795
17,CGGAGCAUUGGGACAAUUUTT against Olfr690,inactive: -0.493
18,GGAUACUACAUGAAUCUUATT against Pip5k1b,inactive: -0.551
19,GGAGAUGGUCUCAUUAAGCTT against Psmd13,inactive: -1.84
20,GGGCAAGGAGACAGAAUUCTT against Fgf18,inactive: 1.83
21,GGAGCUGCUGAACUGUAGUTT against Leprotl1,inactive: 1.01
22,GGCUUUAUGAGAGAGAUGATT against Cryga,inactive: -0.668
23,GGGACUGAACCCUCUCAAATT against Lsp1,inactive: 1.38

# An excerpt of these results, bar-delimited:
row | Sequence | z-score
6 | CCAUCCAAUAAGGUAAACATT against BC034753 | inactive: 2.81
7 | GGACACAUGGUGUUGACCATT against Zc3hdc1 | inactive: 0.305
8 | GGAUUGCUUUUGAGCAACATT against 5830436D01Rik | inactive: 1.92
9 | GGCCAUUCUGUCAAAUUCATT against Smpd1 | inactive: -0.00742
10 | GGCAUAAGAAAAUGGACCCTT against Fhit | inactive: 0.339

# (further entries)

row,Sequence,z-score
1,UCUGAUCACACUGUUUGGATT against Olfr832,inactive: -0.216
2,GGAAAUACAAGCCUUAAAUTT against 5730502D15Rik,inactive: 0.0492
3,GGAUCUAUUCUCUCUGAUGTT against A230083H22Rik,inactive: 0.244
4,CCAGAGUAAUUCAUCAUACTT against Agxt,inactive: 0.738
5,GGGAUCUUAAUGAAGAAGATT against Cd7,inactive: 0.402
6,GGCUUGUGCAAAUCCCACATT against Ppp1r14a,inactive: 0.74
7,CCUUCCAUGUCUAAAAUGGTT against Aldh4a1,inactive: -0.0755
8,CCGAAACUGUUUGACCUCATT against Rasal1,inactive: 0.214
9,CCAAUCCUGAAUAAUGAGATT against 4931427F14Rik,inactive: 0.818
10,CCAGGAUAACCGUAUUAAUTT against Gm2a,inactive: -0.226
11,GGACAUCUGGUUAUGAAUGTT against B3galt6,inactive: 1.14
12,CGGAAACCACCUCUGCUAUTT against Catnd2,inactive: 2.27
13,GCAGGGUCAUAAUUGUUCUTT against Tpd52l1,inactive: -1.11
14,CGACUAAUAUGUCCCAGCUTT against AK122525,inactive: -1.76
15,CCAACCAGUUGAGUUCCAGTT against Nefl,inactive: -0.628
16,GGAGGUUUAAUAAAGGCUUTT against G431004K08Rik,inactive: -0.736
17,GGGACAUUGCAUUGUGAUCTT against Hspa1a,inactive: -0.39
18,GGCAAAAAUACGUUCUAUATT against Slc35a3,inactive: 0.565
19,GGAUUGGAUAUUGAGAAGGTT against Smfn,inactive: -1.41
20,GGAGAUGCAAGGAAAAGUUTT against C230052I12Rik,inactive: -1.67
21,GGAGAUUCAGAAGCACAACTT against Fads2,inactive: 0.811
